± gives the half width of the 95% confidence interval. For many entries, trypsin and chymotrypsin gave values far apart.
Experiments:
[1] = folding stability dG unfold from chymotrypsin proteolysis; higher = more stable
Protocol: (§1)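 Folding stability of de novo designed mini-proteins (<80 aa, no Cys; designed by TrROS, TrMRF, ProteinMPNN and the joint model) was measured by cDNA display proteolysis with trypsin and chymotrypsin. Each protease was used at 11 concentrations in a threefold dilution series plus a no-protease condition. K50 was inferred by Bayesian fitting of sequencing counts, and dG unfold was derived against a sequence-predicted unfolded-state K50 (Tsuboyama et al. method). Sequences shown include variable-length N-terminal GS-type padding (SAGGSAGG...) inside a display construct carrying a PA tag. Rows were kept only if the AF2 dimer inter-PAE was >15, to exclude likely homo-oligomers.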

[2] = folding stability dG unfold (combined trypsin and chymotrypsin); higher = more stable
Protocol: as §1

Row | Sequence | folding stability dG unfold [1] | folding stability dG unfold [2]
1 | SAGGSAGGSAGGEARDNGVPTIEIPIPPEFKKGMPAEQMVDQLAKQLPPGVKDIHIEPPPSAGGSAGGSAGG [r7_487_TrROS] | 0.744 ± 0.035 kcal/mol | 
2 | SAGAKYYPVENLKIKEKVKEGNKLKIEIEYPEGGSVSTNPDGSMTYYDPKTGGYVYFDSKGNLVEVKPSSAG [r5_348_JUSTAS] | 1.48 ± 0.037 kcal/mol | 1.05 ± 0.081 kcal/mol
3 | SAGGSAGGSRVLVVVELENTGEVLVREFGSLEDAVAAIPSDAPVRRIEVFPILPPLSPEALARSAGGSAGGS [r12_851_TrMRF] | 1.01 ± 0.086 kcal/mol | 0.547 ± 0.13 kcal/mol
4 | SAGGSAGGSAGMPPGAPKLRVRVEIQNPNGEPIGEHEFPVDDAEEFAENNGMPIRIDDIVSAGGSAGGSAGG [r17_200_TrROS] | 1.07 ± 0.029 kcal/mol | 0.531 ± 0.11 kcal/mol
5 | SAGGSAGGSAGGANIPSSAVDAANAVAASGEATDVVVTLTVTGPDGNPTTVTITIKFTAASAGGSAGGSAGG [r7_114_JUSTAS] | 2.5 ± 0.074 kcal/mol | 1.94 ± 0.16 kcal/mol
6 | SAGGSAGGSAGSIEEALKKLSPTKSAIIKVKNPDGTEITVKVSTSYIPEKGEIKYPIELASAGGSAGGSAGG [r11_343_JUSTAS] | 1.38 ± 0.062 kcal/mol | 0.704 ± 0.24 kcal/mol
7 | SAGGSAKRVAFIGGGPEIEKVIKEAEKNGFEAVPFDGTPDEFLDALKKNFPDVKQIVFPDGKVLDASAGGSA [r15_712_TrMRF] | 0.192 ± 0.13 kcal/mol | -0.134 ± 0.13 kcal/mol
8 | SAGGSAGGSAGGMTVAITDAEGNVTVTPLSSVSAELLEALKKAGATVTTLPDGSLLITRASAGGSAGGSAGG [r7_496_JUSTAS] | 2.45 ± 0.044 kcal/mol | 1.89 ± 0.11 kcal/mol
9 | SAGGSAGGSAGGDPLRIRARGPDGNQQTFPFKVDDNMNLEEFADDFAPKFGAKNVEIEPSAGGSAGGSAGGS [r10_400_TrROS] | 1.39 ± 0.072 kcal/mol | 0.74 ± 0.2 kcal/mol
10 | SAGGSAGGSAITSNERLGDEVVVTTKPTNKSKTSTVKPSEMPPNFPIPPDLTTSSAPASPALRSAGGSAGGS [r12_1005_JUSTAS] | 1.46 ± 0.031 kcal/mol | 0.853 ± 0.1 kcal/mol
11 | SAGGSAGGSAMRVKTVTVPPEGWEEVKKKLAEKYPFTVTGSEIGNGTVTVNFILPETVTGESAGGSAGGSAG [r3_457_JUSTAS] | 1.11 ± 0.17 kcal/mol | 0.544 ± 0.1 kcal/mol
12 | SAGGSAGGSAGGPVIAFPNSREKAKSITVHPDGTVTVELENGEVRTFDNVVLFHPDSDASAGGSAGGSAGGS [r10_1151_TrMRF] | 1.72 ± 0.042 kcal/mol | 1.2 ± 0.11 kcal/mol
13 | SAGGSAGGSAPKLKFETEPYPNGGYYHKVKIDLEGPKIPITIPVNNNQPMPIEDFAKHILKKSAGGSAGGSA [r18_111_TrROS] |  | < -1 kcal/mol
14 | SAGKIEIHYNPDGMFRIKIEYKDGNKPHEWTIPIPPGQPPEKIKDQLEELAENHGLEDVDVKIEPVPPSAGG [r19_31_TrROS] | 1.11 ± 0.22 kcal/mol | 0.601 ± 0.38 kcal/mol
15 | MNIPLKEILDKAKAEGKPVVFPDGTKTLSFEPGGKATIEKPVEVPGKPGVPLETKTYTIDINEDGSVTVNDS [r1_284_JUSTAS] | -0.279 ± 0.15 kcal/mol | 
16 | SAGGSAGGSAGMEISTKTLPGDKYELTITLPDSKGTPITVTITFTSEEEAKKKLEEIIKKSAGGSAGGSAGG [r11_819_JUSTAS] | 2.7 ± 0.11 kcal/mol | 
17 | SAGGSAGGSAGMKTLKTTTKVFPGTGVIVTESLVEFPNGSLKKLTKVTYVKNPNPSTTLASAGGSAGGSAGG [r17_41_JUSTAS] | 0.545 ± 0.14 kcal/mol | 
18 | SAGGSAGGSAPPWTRVLGLGTFPPGVPDLPVEVPGGNVYALFTPTEDGSVQVLIVDLIPPLSAGGSAGGSAG [r3_464_TrMRF] | 0.965 ± 0.21 kcal/mol | 0.773 ± 0.17 kcal/mol
19 | SAGGSPAPVRRTVTQLLKVGDKLETRVVEEVVWVPEPPPPPVIPIPEDRGLNEEPVPGTRELTFDAGSAGGS [r8_28_JUSTAS] | 0.268 ± 0.19 kcal/mol | -0.195 ± 0.37 kcal/mol
20 | SAGGSAGGSAGARTITLPVPPDLDVVRVEFPEGEVRTLPVSPDEDVVVEVPEDRITITVPSAGGSAGGSAGG [r11_52_JUSTAS] | 1.09 ± 0.051 kcal/mol | 0.606 ± 0.071 kcal/mol
21 | SAGGSAGGSAGKVIKLEELKKKFPNMSPEELAAFFKKLGYKVEVVKVGDVPYVFLSPGEKSAGGSAGGSAGG [r11_707_TrMRF] | 3.676 ± 0.02 kcal/mol | 3.33 ± 0.049 kcal/mol
22 | SAGGSAGGSAGGGLRDFVASGKPVLVRARGADGEVREVVVAPDEDVPLPGVLEVEVSDVSAGGSAGGSAGGS [r10_700_TrMRF] | 1.08 ± 0.043 kcal/mol | 0.474 ± 0.082 kcal/mol
23 | SAGGSAGGSAVKVEVEGDYLRIEVEYELYDPETGEKKTLTLELEIKIPPIPPAEVPLVENAASAGGSAGGSA [r18_501_TrMRF] | 1.83 ± 0.2 kcal/mol | 1.58 ± 0.47 kcal/mol
24 | SAGGSAGGSARPVVLTGLLPDNVLVTVAFDPETGKVSVTVTPVPPVPPLAIGPEDAARLLAGSAGGSAGGSA [r18_236_TrMRF] | 1.15 ± 0.044 kcal/mol | 0.657 ± 0.14 kcal/mol
25 | SVTDRVVTDPAGSTWTEDATTGVATRTDAVTGTTTTTQVTPVPGGVLVQTTTGGTPSLRTVPPDAALVTGSA [r9_239_JUSTAS] | 1.52 ± 0.022 kcal/mol | 1.01 ± 0.096 kcal/mol
26 | SAGGMTLTPDEYLEILLGLPTGIERRVFLPGGDLEAALAATGLPPERVPVREIRALPLSPEEVAARLASAGG [r13_850_JUSTAS] | 1.44 ± 0.047 kcal/mol | 0.781 ± 0.089 kcal/mol

Row | Sequence | folding stability dG unfold [1] | folding stability dG unfold [2]
27 | SAGGSAGGSYKIDKIEVQPPPGGYYQATIEVEQVDPENGNPQRQEQEIPVPANDPKQIKDFLKSAGGSAGGS [r12_691_TrROS] | 0.379 ± 0.16 kcal/mol | 0.174 ± 0.22 kcal/mol
28 | SAGGSAGGSAETIATASTSPPSSTVTSTLPGSGATVTTTVAPDGTPTVTTTDATTPTTVAASAGGSAGGSAG [r3_458_JUSTAS] | 1.57 ± 0.028 kcal/mol | 1.22 ± 0.043 kcal/mol
29 | SAGGSAGGSAGGGPRRLRLSIPLTVPVFTLVDGEPRVEPAPLNLTFEFTLPEGLPTELLSAGGSAGGSAGGS [r10_633_TrMRF] | 3.12 ± 0.057 kcal/mol | 2.55 ± 0.095 kcal/mol
30 | SAGGSAGGKKKVKYYKIKEVKIEKDEDGNYTITVKVDGKTFTITIPKEKIKPGMKLKDIVIKIKSAGGSAGG [r6_255_TrROS_Hall] | 3.57 ± 0.038 kcal/mol | 3.16 ± 0.11 kcal/mol
31 | SAGGPGIPVKTLNILVEFPPEETLEQARERVEELAEELRKKFPELLSVDVDVEKVGDRYIANIKVEIPLSAG [r5_446_TrMRF] | 3.35 ± 0.12 kcal/mol | 3.99 ± 0.22 kcal/mol
32 | SAGGSAGGSMKITKSPSGYYTVTINLPNGTTVEIKVSTSDPNATDEQIIEIAKPKAEEILKKSSAGGSAGGS [r12_642_JUSTAS] | 2.87 ± 0.12 kcal/mol | 
33 | SAGGSAGGSAGGSGNFTIDPALLEEARAEAAAAGEALETIPLKVTRPGGETKTIDIKVGSAGGSAGGSAGGS [r4_367_JUSTAS] |  | < -1 kcal/mol
34 | SALEALLAAAREAAAAGLEEVEVELPLPGERSLRARFRVERRDGAPVRIEVELEYYDAGGRRTPRRLELTLS [r1_254_JUSTAS] | 3.19 ± 0.043 kcal/mol | 2.63 ± 0.053 kcal/mol
35 | EIIEKLKEAIKNAKPGETIEIKLPDGTIIKIEIEEEEKEVDGKKVKTKKIKIEIYDKDGKLIKKIELEIKES [r1_386_TrROS_Hall] |  | > 6 kcal/mol
36 | SAGGSAGGSRRPELRLLELPIPLPPGGSAEDVARALDAEPGFEVVEILEVDPATGRVRLLVRRSAGGSAGGS [r12_712_TrMRF] | 1.92 ± 0.095 kcal/mol | 1.32 ± 0.059 kcal/mol
37 | SAGGEEVVVERPPAPPPITVTIEYDEETNTVTVTVTLPNGETLTITVEAPSLEEAEAAARELLEALSSAGGS [r16_319_TrROS_Hall] | 2.96 ± 0.37 kcal/mol | 
38 | SAGGSAGGSAGKIRIDARPNGNWRAHYPGGKEHEFNSPDDIKDELEKKFPNFDIIEIEPWSAGGSAGGSAGG [r11_806_TrROS] |  | < -1 kcal/mol
39 | SAGGSAKVIAVPSLEEALKLAEEAAKEGKDIVVLFPDNRLLVVEVKPAPDDKPVLKLKVFEIPPELSAGGSA [r15_761_TrMRF] | 0.974 ± 0.072 kcal/mol | 
40 | SAGGSAGGSFEVEPTPDHVSIRYYNPDGNPPVSATVDPPEGDIDFEHPDKKQEFPLKPGDTLISAGGSAGGS [r12_536_TrROS] |  | < -1 kcal/mol
41 | SAPPLPPDAVVETESEPVGVDPTENGTLTYYRRTVRVTLPDGSLTLESLVFRDPATGSSTSSVLRETALSAG [r14_293_JUSTAS] |  | < -1 kcal/mol
42 | SSLDDLSPEQAVDQAKFMVRMIRESRDNGKPEQYPKMINMLRRMASSAPPPDRKAVKEVLEEFKIPPEWFSA [r9_182_TrROS] |  | < -1 kcal/mol
43 | SAGGSAGGSSPSSVTETTLPDGTKVTVKYDPVTNTTTVTTTFPDGTVVTVVNPNNTTTTSPTASAGGSAGGS [r12_360_JUSTAS] | 2.55 ± 0.092 kcal/mol | 
44 | SAGGSAGGSAGGMTVKEIAEKLGLPPGLKVEDIPLDPPNGYFEIEITHDDGPHTYRIPISAGGSAGGSAGGS [r10_17_TrROS] |  | < -1 kcal/mol
45 | SAGGSGDPNAAPVVVKVTIDITRPTADDSYVTSPVELTLLESEVDEFLAELEKEPDLELKVEVTLESAGGSA [r2_270_JUSTAS] | 1.25 ± 0.026 kcal/mol | 
46 | SAGGSAGGSAEEPPETVEIELEFELEDGLVVRIRIEVTPDGEIRIEIEVLPLEELEELFPEKSAGGSAGGSA [r18_302_TrROS_Hall] | 2.51 ± 0.73 kcal/mol | 
47 | SAGGSATIEEIANMPAEEIAQEHGMEVKDVDIERVPNGTITVEVEYEPPDGKKHKHTFQIKIDEGQSAGGSA [r15_805_TrROS] | 0.251 ± 0.11 kcal/mol | 
48 | SAGGSPVLVPLEREETDPARGTRTRTRAYRLPERDIALVEREEIPFAPDGTPLRRTSEEVVSLEELLESAGG [r13_807_JUSTAS] |  | < -1 kcal/mol
49 | SAGGITINEDGTITIEVNGKTYTIKLPPGAEITKIEVLEDGTIKITLRINGKTVTLELKVYKEGEEPSAGGS [r16_635_TrROS_Hall] | 6.55 ± 0.68 kcal/mol | 
50 | SEAEVEVEVLPGPDAVVVRVRLPGRDEVVELRVLDPHPGEGRVLVAVSPGDDDTVVVRDLSPEDIKALLASA [r9_1221_TrMRF] | 0.973 ± 0.055 kcal/mol | 
51 | SAGGSAGGSAKIKVEWEQHPEGYNLVKVEIPNPDNGKKKKVEGPFDSLEDAEDEAKELLKKSAGGSAGGSAG [r3_174_TrROS] |  | < -1 kcal/mol

Random excerpt: 2 records from the list, in no set order.
Row | Sequence | folding stability dG unfold [1] | folding stability dG unfold [2]
33 | SAGGSAGGSAGGSGNFTIDPALLEEARAEAAAAGEALETIPLKVTRPGGETKTIDIKVGSAGGSAGGSAGGS [r4_367_JUSTAS] |  | < -1 kcal/mol
37 | SAGGEEVVVERPPAPPPITVTIEYDEETNTVTVTVTLPNGETLTITVEAPSLEEAEAAARELLEALSSAGGS [r16_319_TrROS_Hall] | 2.96 ± 0.37 kcal/mol | 
